Article doi:10.1101/2025.09.29.675399
Results are given in words; binding and its absence hold for the method and conditions named. In cells and extracts the contact can be indirect. Some results given as binding are weak or reduced against the parent protein; the word gives no strength. Where a sequence is shown, tags or fusion partners need not be part of it.

Protein sequences, listed by entry. Tags and fused reporters are not part of them.
UniProt Q13547: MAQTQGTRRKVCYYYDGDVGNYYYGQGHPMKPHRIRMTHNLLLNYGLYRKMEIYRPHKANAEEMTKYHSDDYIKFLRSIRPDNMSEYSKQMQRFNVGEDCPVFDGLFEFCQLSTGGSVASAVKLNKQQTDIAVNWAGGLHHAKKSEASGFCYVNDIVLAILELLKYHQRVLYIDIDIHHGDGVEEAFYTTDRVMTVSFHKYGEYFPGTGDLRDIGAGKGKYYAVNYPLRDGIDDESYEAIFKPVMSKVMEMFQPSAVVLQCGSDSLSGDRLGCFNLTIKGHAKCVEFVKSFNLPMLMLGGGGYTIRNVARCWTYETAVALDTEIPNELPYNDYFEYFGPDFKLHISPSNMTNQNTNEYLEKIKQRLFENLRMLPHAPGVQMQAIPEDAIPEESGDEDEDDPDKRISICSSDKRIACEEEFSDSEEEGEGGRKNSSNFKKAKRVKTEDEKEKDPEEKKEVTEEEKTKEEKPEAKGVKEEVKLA

Target: T1, Kaiso-Flag (human) (UniProt Q86T24)
T1 sequence: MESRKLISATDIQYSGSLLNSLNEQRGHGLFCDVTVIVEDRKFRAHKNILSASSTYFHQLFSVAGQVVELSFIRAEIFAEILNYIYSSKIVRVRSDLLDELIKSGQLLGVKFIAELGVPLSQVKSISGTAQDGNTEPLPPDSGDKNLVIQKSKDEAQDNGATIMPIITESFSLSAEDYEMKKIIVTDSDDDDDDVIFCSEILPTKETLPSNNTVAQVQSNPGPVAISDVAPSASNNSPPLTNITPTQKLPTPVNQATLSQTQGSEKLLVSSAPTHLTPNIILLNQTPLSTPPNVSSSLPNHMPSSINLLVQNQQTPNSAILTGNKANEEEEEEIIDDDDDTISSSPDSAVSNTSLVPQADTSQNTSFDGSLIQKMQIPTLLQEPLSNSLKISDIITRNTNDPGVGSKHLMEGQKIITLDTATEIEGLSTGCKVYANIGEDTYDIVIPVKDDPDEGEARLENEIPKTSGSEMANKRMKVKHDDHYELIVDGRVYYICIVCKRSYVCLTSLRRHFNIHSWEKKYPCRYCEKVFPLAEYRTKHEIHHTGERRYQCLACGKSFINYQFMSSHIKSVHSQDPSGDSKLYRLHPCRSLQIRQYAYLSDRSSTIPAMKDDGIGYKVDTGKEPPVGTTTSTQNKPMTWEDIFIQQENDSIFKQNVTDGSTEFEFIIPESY
Experiment: co-IP

binding: binds
Substance: HDAC1-HA (from UniProt Q13547 1-482)
